At least one compound was matched to its structure with a doubt left.
System: CAT expression in E. coli S30 extract cell-free protein synthesis
Type: biochemical, Escherichia coli
Conditions: Cytomim system, 15 μl, 6 hours
Description: Reactions were incubated at 37° C. for 5-6 hours. The amount of synthesized protein is estimated from the measured TCA-insoluble radioactivities using a liquid scintillation counter (Beckman LS3801). (Kim et al. 1996). Soluble protein yields were determined as previously described. (Kim and Swartz 2000).

NC(=O)c1ccc[n+]([C@@H]2O[C@H](COP(=O)([O-])OP(=O)(O)OC[C@H]3O[C@@H](n4cnc5c(N)ncnc54)[C@H](O)[C@@H]3O)[C@@H](O)[C@H]2O)c1 [NAD, nicotinamide adenine dinucleotide]
reduction of synthesis on removal of the cofactor: about 10%

Reference: patent US8357529B2, “Methods of in vitro protein synthesis” (The Board of Trustees of the Leland Stanford Junior …, priority 2002, dated 2013)
